The list shows a part of the results, in another mix than the full data.
What follows are targets tested with COC(=O)C#Cc1ccccc1 [methyl 3-phenylpropiolate] (assay: log2 ratio of iodoacetamide-alkyne labeling of the cysteine site, DMSO over compound (competition); higher = stronger covalent engagement of the cysteine by the compound, active = 1 or more). Conditions: 500 µM; treatment time 1 h; system: HEK293T cell lysate.
How it was run: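 Reporter intensities give each cysteine's log2 competition ratio as the mean of control channels over the mean of compound channels. The samples were HEK293T lysate (2 mg/mL) given vehicle or electrophile (500 µM, 1 h, ambient temperature), then iodoacetamide alkyne (1 h), followed by click coupling to sCIP-TMT reagents, pooling, trypsin digestion overnight at 37 °C, streptavidin enrichment, acid elution, Orbitrap Eclipse LC-MS/MS with FAIMS and FragPipe quantification. Duplicate channels and three replicates were run, and cysteines quantified in only one replicate were discarded.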

Chains of the proteins cited; added tags and fusions are not shown. Lines headed by an entry give the natural chain unless they say otherwise; changes in a name come on top.
UniProt Q53EZ4: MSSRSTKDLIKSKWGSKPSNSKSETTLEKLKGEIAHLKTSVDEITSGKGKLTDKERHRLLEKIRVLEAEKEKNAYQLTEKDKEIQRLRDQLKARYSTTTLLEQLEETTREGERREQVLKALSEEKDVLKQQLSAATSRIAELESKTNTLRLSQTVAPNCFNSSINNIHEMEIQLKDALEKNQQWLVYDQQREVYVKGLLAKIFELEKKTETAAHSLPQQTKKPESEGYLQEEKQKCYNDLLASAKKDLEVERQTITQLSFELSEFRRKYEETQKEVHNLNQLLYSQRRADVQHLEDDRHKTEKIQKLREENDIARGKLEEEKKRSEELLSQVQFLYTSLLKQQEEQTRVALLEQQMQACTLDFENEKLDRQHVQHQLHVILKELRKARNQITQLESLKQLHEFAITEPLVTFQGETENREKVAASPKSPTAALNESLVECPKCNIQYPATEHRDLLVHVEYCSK
UniProt Q16512: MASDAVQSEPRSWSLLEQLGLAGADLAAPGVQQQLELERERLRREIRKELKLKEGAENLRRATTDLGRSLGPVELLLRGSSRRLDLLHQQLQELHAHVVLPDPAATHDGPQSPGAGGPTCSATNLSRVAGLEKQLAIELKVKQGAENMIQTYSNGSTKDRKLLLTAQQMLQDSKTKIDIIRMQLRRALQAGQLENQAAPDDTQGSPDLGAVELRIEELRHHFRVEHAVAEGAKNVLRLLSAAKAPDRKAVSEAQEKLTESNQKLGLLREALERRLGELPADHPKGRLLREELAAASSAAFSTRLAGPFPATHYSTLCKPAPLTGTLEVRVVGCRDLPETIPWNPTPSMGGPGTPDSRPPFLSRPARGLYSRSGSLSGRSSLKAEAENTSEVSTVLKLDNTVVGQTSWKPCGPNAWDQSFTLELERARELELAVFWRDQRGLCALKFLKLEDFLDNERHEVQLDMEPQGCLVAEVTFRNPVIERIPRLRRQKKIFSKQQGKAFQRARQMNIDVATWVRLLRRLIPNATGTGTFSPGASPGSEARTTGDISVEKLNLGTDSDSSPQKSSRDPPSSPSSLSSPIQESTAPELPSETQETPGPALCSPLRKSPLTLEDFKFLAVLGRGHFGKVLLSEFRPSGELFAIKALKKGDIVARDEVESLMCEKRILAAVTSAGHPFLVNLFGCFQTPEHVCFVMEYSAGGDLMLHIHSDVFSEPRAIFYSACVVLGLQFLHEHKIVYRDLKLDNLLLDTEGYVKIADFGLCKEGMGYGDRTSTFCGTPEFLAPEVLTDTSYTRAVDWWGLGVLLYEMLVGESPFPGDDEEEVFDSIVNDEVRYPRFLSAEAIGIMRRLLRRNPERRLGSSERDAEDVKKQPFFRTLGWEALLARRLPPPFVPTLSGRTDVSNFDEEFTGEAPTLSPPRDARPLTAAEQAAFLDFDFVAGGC
UniProt Q15084: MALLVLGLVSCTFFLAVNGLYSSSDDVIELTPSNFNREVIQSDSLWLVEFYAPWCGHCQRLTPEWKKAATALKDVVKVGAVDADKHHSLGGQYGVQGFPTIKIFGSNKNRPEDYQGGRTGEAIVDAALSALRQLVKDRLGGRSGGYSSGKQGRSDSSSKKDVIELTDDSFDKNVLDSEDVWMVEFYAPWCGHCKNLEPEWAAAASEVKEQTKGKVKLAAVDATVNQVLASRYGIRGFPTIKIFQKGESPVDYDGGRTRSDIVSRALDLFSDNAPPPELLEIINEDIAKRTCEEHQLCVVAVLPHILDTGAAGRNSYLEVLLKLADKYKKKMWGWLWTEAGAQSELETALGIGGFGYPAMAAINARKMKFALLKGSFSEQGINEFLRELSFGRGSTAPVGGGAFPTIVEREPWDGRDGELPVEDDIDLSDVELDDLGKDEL
UniProt Q16774: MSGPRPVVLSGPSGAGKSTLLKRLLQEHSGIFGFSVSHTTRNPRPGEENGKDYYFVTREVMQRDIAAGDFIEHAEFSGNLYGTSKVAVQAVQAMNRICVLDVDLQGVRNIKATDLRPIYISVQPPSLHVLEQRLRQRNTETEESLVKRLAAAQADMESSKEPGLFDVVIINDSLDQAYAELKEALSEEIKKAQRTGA
UniProt Q15286: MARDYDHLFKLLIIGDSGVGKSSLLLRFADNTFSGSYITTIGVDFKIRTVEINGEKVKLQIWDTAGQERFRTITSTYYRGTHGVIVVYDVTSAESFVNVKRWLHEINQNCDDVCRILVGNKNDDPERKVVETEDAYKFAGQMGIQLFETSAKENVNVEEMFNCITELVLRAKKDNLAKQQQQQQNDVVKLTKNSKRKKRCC
UniProt Q15643: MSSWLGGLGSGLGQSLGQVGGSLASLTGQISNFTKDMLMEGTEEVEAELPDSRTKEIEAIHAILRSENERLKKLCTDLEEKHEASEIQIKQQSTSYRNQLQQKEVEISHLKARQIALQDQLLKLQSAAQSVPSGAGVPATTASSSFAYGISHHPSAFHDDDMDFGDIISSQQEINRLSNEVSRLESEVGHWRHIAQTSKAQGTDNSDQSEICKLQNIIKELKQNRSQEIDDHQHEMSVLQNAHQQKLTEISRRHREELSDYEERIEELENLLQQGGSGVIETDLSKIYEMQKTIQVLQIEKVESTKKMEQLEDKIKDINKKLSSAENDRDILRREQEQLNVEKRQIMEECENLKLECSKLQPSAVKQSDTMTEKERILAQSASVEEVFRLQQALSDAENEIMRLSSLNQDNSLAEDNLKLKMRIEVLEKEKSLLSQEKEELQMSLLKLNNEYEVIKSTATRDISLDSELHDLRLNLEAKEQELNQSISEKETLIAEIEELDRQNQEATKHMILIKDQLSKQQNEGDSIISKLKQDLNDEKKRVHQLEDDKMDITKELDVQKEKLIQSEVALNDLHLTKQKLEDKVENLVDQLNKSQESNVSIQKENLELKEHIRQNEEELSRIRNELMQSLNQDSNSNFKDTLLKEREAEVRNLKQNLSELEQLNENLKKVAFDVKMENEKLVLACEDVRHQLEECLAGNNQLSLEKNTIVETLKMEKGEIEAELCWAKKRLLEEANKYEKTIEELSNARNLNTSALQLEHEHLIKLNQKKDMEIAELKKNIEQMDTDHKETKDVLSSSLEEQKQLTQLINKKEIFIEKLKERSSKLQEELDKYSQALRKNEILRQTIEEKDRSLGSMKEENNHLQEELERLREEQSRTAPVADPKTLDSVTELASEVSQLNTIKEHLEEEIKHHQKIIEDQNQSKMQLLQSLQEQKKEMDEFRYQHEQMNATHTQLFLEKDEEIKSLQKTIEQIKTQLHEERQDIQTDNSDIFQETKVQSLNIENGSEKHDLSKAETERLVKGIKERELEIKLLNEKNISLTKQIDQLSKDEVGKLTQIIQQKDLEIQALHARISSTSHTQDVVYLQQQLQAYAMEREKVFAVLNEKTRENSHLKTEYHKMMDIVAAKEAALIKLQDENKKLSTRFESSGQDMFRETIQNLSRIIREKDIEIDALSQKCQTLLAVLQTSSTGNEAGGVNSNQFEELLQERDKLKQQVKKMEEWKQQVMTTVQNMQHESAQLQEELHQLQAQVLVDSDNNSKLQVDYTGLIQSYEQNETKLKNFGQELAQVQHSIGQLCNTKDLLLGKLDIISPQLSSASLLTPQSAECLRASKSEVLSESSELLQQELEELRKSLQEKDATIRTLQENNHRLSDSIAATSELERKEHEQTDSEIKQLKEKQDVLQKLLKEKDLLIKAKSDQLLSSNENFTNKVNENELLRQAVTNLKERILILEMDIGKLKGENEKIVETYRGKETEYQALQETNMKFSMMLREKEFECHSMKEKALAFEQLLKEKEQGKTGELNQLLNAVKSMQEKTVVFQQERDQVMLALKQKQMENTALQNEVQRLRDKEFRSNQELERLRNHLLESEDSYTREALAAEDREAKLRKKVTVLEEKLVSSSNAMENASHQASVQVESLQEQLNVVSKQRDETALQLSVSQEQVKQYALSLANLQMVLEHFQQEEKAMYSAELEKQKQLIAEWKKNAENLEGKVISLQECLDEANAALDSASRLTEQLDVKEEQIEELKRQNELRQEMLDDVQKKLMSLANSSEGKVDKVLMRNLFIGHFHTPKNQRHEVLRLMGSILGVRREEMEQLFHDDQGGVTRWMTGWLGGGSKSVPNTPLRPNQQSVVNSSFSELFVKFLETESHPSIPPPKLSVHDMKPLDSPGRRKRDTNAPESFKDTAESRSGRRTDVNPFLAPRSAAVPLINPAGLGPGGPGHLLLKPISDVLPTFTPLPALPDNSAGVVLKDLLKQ
UniProt Q15365, whole entry, looked up: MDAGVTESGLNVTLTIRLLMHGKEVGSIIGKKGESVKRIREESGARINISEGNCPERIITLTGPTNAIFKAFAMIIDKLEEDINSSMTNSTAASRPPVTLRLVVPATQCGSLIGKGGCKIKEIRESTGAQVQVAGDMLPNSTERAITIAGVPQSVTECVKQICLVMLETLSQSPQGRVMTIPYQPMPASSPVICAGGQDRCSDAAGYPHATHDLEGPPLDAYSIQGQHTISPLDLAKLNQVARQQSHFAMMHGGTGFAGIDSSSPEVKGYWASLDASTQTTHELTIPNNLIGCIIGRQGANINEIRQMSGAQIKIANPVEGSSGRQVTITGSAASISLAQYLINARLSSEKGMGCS
UniProt Q15648, whole entry, looked up: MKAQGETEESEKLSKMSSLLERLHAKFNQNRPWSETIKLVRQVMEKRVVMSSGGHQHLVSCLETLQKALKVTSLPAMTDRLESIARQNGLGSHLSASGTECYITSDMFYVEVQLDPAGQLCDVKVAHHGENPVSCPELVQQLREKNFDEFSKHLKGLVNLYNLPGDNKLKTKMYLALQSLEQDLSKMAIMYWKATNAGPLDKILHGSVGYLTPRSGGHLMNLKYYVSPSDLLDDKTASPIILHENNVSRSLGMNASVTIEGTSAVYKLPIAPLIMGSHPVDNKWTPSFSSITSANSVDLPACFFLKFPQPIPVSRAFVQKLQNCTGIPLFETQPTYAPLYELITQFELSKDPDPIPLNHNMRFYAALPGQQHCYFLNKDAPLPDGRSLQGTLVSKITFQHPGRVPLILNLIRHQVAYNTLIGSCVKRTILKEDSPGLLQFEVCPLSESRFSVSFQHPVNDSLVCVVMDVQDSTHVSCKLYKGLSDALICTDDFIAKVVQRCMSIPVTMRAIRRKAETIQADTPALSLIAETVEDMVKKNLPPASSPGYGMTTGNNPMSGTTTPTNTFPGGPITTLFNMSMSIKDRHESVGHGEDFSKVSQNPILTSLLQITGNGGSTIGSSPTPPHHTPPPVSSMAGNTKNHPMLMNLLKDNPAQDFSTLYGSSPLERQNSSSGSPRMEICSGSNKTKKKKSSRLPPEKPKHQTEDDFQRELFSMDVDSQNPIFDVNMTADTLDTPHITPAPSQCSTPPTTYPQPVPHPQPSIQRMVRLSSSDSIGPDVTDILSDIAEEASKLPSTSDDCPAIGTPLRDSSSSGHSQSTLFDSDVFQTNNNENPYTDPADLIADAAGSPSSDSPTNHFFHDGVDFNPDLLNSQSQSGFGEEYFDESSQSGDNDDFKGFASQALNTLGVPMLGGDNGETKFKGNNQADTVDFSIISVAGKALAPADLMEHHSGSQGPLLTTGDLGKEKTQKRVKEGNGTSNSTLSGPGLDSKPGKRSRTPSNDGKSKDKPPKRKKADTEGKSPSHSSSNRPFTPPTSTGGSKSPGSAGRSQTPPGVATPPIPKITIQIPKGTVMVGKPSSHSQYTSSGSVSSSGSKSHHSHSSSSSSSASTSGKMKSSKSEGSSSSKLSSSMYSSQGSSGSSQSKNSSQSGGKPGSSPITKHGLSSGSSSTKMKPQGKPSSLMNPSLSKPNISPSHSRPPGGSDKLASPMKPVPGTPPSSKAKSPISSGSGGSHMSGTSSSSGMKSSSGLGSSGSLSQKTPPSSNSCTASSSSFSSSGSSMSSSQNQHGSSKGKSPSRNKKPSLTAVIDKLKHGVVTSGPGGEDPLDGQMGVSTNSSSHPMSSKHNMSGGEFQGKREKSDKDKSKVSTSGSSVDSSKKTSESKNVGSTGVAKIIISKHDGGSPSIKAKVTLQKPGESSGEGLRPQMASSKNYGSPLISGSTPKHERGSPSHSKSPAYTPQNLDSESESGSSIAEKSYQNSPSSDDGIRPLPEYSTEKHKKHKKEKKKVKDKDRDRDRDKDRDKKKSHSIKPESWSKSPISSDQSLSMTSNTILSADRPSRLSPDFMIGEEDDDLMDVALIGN
UniProt Q15131: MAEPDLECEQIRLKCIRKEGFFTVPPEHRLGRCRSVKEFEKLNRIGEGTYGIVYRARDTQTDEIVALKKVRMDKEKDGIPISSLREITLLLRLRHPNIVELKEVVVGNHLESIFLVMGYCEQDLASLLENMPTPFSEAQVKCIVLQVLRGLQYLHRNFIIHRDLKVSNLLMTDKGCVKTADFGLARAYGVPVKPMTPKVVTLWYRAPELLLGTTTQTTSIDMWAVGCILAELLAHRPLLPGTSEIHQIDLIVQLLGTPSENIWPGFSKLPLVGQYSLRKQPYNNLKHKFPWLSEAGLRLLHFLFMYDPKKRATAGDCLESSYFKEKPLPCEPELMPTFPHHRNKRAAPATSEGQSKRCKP

Target	log2 ratio of iodoacetamide-alkyne labeling
DPYSL2 C504 (UniProt Q16555)	inactive: 0.19
CEP55 C462 (UniProt Q53EZ4)	inactive: 0.249
UniProt Q16512_C120	inactive: 0.29
UniProt Q15397_C185	inactive: 0.0935
SEC23B C434 (UniProt Q15437)	inactive: 0.262
HERC1 C1941 (UniProt Q15751)	inactive: 0.763
UBE3C C158 (UniProt Q15386)	inactive: 0.194
GLE1 C287 (UniProt Q53GS7)	inactive: 0.013
CNN3 C59 (UniProt Q15417)	inactive: -0.0278
HS1BP3 C287 (UniProt Q53T59)	inactive: 0.16
TSR1 C329 (UniProt Q2NL82)	inactive: 0.425
PDIA6 C190 (UniProt Q15084)	inactive: 0.226
QRICH1 C701 (UniProt Q2TAL8)	inactive: 0.701
PTPN14 C1082 (UniProt Q15678)	inactive: 0.038
GUK1 C98 (UniProt Q16774)	inactive: -0.209
TWISTNB C28 (UniProt Q3B726)	inactive: 0.889
GLYR1 C231 (UniProt Q49A26)	inactive: 0.13
SLC9A3R2 C271 (UniProt Q15599)	inactive: 0.501
UniProt Q15286_C163	inactive: 0.0486

Target	log2 ratio of iodoacetamide-alkyne labeling
SETDB1 C92 (UniProt Q15047)	inactive: 0.252
LONRF2 C166 (UniProt Q1L5Z9)	inactive: 0.0566
NCAPD2 C816 (UniProt Q15021)	inactive: 0.11
MAP7D1 C328 (UniProt Q3KQU3)	inactive: 0.54
PPA1 C274 (UniProt Q15181)	inactive: 0.425
KIF14 C442 (UniProt Q15058)	inactive: 0.0677
SUZ12 C46 (UniProt Q15022)	inactive: 0.117
MAP7D1 C251 (UniProt Q3KQU3)	inactive: 0.401
SF1 C279 (UniProt Q15637)	inactive: -0.0573
TRIP11 C212 (UniProt Q15643)	inactive: 0.105
UniProt Q15365_C118	active: 1.72
MED1 C324 (UniProt Q15648)	inactive: -0.00344
CDK10 C8 (UniProt Q15131)	inactive: 0.447
TYSND1 C77 (UniProt Q2T9J0)	inactive: 0.164
PCBP2 C118 (UniProt Q15366)	inactive: 0.925
TXNRD1 C209 (UniProt Q16881)	inactive: -0.0684
IAH1 C137 (UniProt Q2TAA2)	inactive: 0.339
MED1 C135 (UniProt Q15648)	inactive: 0.499

Single values from the list:
UniProt Q15365_C118 | log2 ratio of iodoacetamide-alkyne labeling: active: 1.72
TYSND1 C77 (UniProt Q2T9J0) | log2 ratio of iodoacetamide-alkyne labeling: inactive: 0.164

Reference: the supplement of paper PMC11006884
